From patent US8618067B2, “L-sugar colon cleansing agent and uses thereof” (Aptalis Pharma US, Inc., priority 2009, dated 2013)

System: colon
Assay: Comparative Example 2: randomized, single-blind study of L-glucose as bowel preparation before colonoscopy (GPA scale)
Parameters: species or system human
Details: in vivo
Method: Global Preparation Assessment
Excellent=clean colon or small volume of clear liquid
Good=moderate to large volume of clear to semiclear liquid
Fair=some semisolid stool suctioned or washed away
Poor=semisolid or solid stool unable to be suctioned or washed away
A randomized, single-blind study designed to determine the clinical effectiveness of L-glucose as a bowel preparation before colonoscopy was performed. Three dose regimens were evaluated: 24 g in the evening only, 30 g in the evening only, and 24 g in the evening followed by 12 g in the morning (36 g total). Here, Applicant's GPA scale described herein was used to evaluate the preparations. […] Clinical efficacy (defined as a combination of “excellent” and “good” assessments) for the split-dose schedule was 19/27 (70%), as compared to 7/31 (23%) in the single-dose schedule (p<0.001).
As noted above in the description of Applicant's GPA scale, the criteria for determining whether a preparation was deemed “excellent” or “good” was respectively defined as “clean colon or small volume of clear liquid” or “moderate to large volume of clear to semi-clear liquid.” These criteria are more stringent than the rating system used by Raymer et al. discussed supra since Raymer's “excellent” and “good” ratings were respectively defined as “no more than small bits of adherent fecal fluid” and “small amounts of feces or fluid not interfering with the examination.” Thus, Raymer's “excellent” rating would likely not qualify as even a “good” rating in Applicant's GPA scale.

O=C[C@@H](O)[C@H](O)[C@@H](O)[C@@H](O)CO [L-glucose]
Ease of use of the cleansing solution, nearly all subjects: easy and convenient to use | Taste rating: very pleasant to somewhat pleasant | Willingness to repeat the regimen: most subjects reported they were willing to repeat the regimen
